These are yes or no findings as the source states them, for the method shown. In cells and extracts the contact can be indirect. These calls come from enrichment with a bait or labelling near it, and not all partners need be listed.
B1: Aspartate beta-hydroxylase isoform a (enzyme, UniProt Q12797-1 1-758)
chain: MAQRKNAKSSGNSSSSGSGSGSTSAGSSSPGARRETKHGGHKNGRKGGLSGTSFFTWFMVIALLGVWTSVAVVWFDLVDYEEVLGKLGIYDADGDGDFDVDDAKVLLGLKERSTSEPAVPPEEAEPHTEPEEQVPVEAEPQNIEDEAKEQIQSLLHEMVHAEHVEGEDLQQEDGPTGEPQQEDDEFLMATDVDDRFETLEPEVSHEETEHSYHVEETVSQDCNQDMEEMMSEQENPDSSEPVVEDERLHHDTDDVTYQVYEEQAVYEPLENEGIEITEVTAPPEDNPVEDSQVIVEEVSIFPVEEQQEVPPETNRKTDDPEQKAKVKKKKPKLLNKFDKTIKAELDAAEKLRKRGKIEEAVNAFKELVRKYPQSPRARYGKAQCEDDLAEKRRSNEVLRGAIETYQEVASLPDVPADLLKLSLKRRSDRQQFLGHMRGSLLTLQRLVQLFPNDTSLKNDLGVGYLLIGDNDNAKKVYEEVLSVTPNDGFAKVHYGFILKAQNKIAESIPYLKEGIESGDPGTDDGRFYFHLGDAMQRVGNKEAYKWYELGHKRGHFASVWQRSLYNVNGLKAQPWWTPKETGYTELVKSLERNWKLIRDEGLAVMDKAKGLFLPEDENLREKGDWSQFTLWQQGRRNENACKGAPKTCTLLEKFPETTGCRRGQIKYSIMHPGTHVWPHTGPTNCRLRMHLGLVIPKEGCKIRCANETKTWEEGKVLIFDDSFEHEVWQDASSFRLIFIVDVWHPELTPQQRRSLPAI
B2: Mei1 (protein, UniProt Q5TIA1 1-1274)
chain: MAVRQAATAGTPGPRREEEAALLFERAHYRHDPRWLLPVTPRLCLACALELLPDPGVSLVRKKHMLSCFQDALVRHTSLVTQLVSQDQRVCIHFISVLFGLLCSMEDGSVTDLCIEVLIQITTQLKLEQTIRCLLDECHKELCNMPSMRGSLATLTLLGKLVDAIPALADELVMEHGNLMEHLLRGLVYPSEGIQASVCYLYGKLYSSPVAAEMLSGHFREKLFPLFLSILDGAQTKELQINCLGLLRQLLKYDLFVSMIMNQDGLGESAKNIEGSSGNTSLPLVLKKLLLSRDETLQVASAHCITAVLVHSPAKHASAFIHADIPEFLFEHLSSSSEVLVWSSCNCLTLLVEEPLFFSKCHTVYGIEAVVRSLQGSLKMNNIELHKQGLLLFAEILTRQPEEIKLFTSSAMCRDAGRALQEAVSSPVLEVAAEALKATSAFLRKDHQSTPPVQYGELQALLEAMLNRCAEFSQTLLSRRPLGHASSRDSEKAILQRGKFLLSTLEGFRSACRLAIEFQSEPSAQENPFTAPSAKKEDTLEAFSEFLLSACDSLCIPMVMRHLEQTTHPALMEVFLSILHNLFVIVPHMKEKFSKKLASSSFIRLTLELKARFCSGLSHSALNQVCSNFLYYMCLNLLSAPEKTGPPSKEELSAVSELLQHGLPQISSRSPESLAFLSDRQYMEGAARQRQYCILLLFYLAYIHEDRFVSEAELFEAVQSFLLSLQDQGERPPLVVFKASIYLLAICQDKDNTLRETMVSAIRKFLEGIPDLQLVYTHHPLLLRFFLLYPELMSRYGHRVLELWFFWEESSYEELDDVTSAGQPALPASLVVLFQLLRSIPSILLILLDLIYSSPVDTAHKVLISLRTFLRRNEDIQVGGLIRGHFLLILQRLLVEHGASPSGASGNLPLLLSLLSLMQLRNVSEQELDSVAMKLLHQVSKLCGKCSPTDVDILQPSFNFLYWSLHQTTPSSQKRAAAVLLSSTGLMELLEKMLALTLAKADSPRTALLCSAWLLTASFSAQQHKGSLQVHQTLSVEMDQVLKALSFPKKKAALLSAAILCFLRTALRQSFSSALVALVPSGAQPLPATKDTVLAPLRMSQVRSLVIGLQNLLVQKDPLLSQACVGCLEALLDYLDARSPDIALHVASQPWNRFLLFTLLDAGENSFLRPEILRLMTLFMRYRSSSVLSHEEVGDVLQGVALADLSTLSNTTLQALHGFFQQLQSMGHLADHSMAQTLQASLEGLPPSTSSGQPPLQDMLCLGGVAVSLSHIRN
B3: Myosin binding protein C, fast type (protein, UniProt Q14324 1-1141)
chain: MPEAKPAAKKAPKGKDAPKGAPKEAPPKEAPAEAPKEAPPEDQSPTAEEPTGVFLKKPDSVSVETGKDAVVVAKVNGKELPDKPTIKWFKGKWLELGSKSGARFSFKESHNSASNVYTVELHIGKVVLGDRGYYRLEVKAKDTCDSCGFNIDVEAPRQDASGQSLESFKRTSEKKSDTAGELDFSGLLKKREVVEEEKKKKKKDDDDLGIPPEIWELLKGAKKSEYEKIAFQYGITDLRGMLKRLKKAKVEVKKSAAFTKKLDPAYQVDRGNKIKLMVEISDPDLTLKWFKNGQEIKPSSKYVFENVGKKRILTINKCTLADDAAYEVAVKDEKCFTELFVKEPPVLIVTPLEDQQVFVGDRVEMAVEVSEEGAQVMWMKDGVELTREDSFKARYRFKKDGKRHILIFSDVVQEDRGRYQVITNGGQCEAELIVEEKQLEVLQDIADLTVKASEQAVFKCEVSDEKVTGKWYKNGVEVRPSKRITISHVGRFHKLVIDDVRPEDEGDYTFVPDGYALSLSAKLNFLEIKVEYVPKQEPPKIHLDCSGKTSENAIVVVAGNKLRLDVSITGEPPPVATWLKGDEVFTTTEGRTRIEKRVDCSSFVIESAQREDEGRYTIKVTNPVGEDVASIFLQVVDVPDPPEAVRITSVGEDWAILVWEPPMYDGGKPVTGYLVERKKKGSQRWMKLNFEVFTETTYESTKMIEGILYEMRVFAVNAIGVSQPSMNTKPFMPIAPTSEPLHLIVEDVTDTTTTLKWRPPNRIGAGGIDGYLVEYCLEGSEEWVPANTEPVERCGFTVKNLPTGARILFRVVGVNIAGRSEPATLAQPVTIREIAEPPKIRLPRHLRQTYIRKVGEQLNLVVPFQGKPRPQVVWTKGGAPLDTSRVHVRTSDFDTVFFVRQAARSDSGEYELSVQIENMKDTATIRIRVVEKAGPPINVMVKEVWGTNALVEWQAPKDDGNSEIMGYFVQKADKKTMEWFNVYERNRHTSCTVSDLIVGNEYYFRVYTENICGLSDSPGVSKNTARILKTGITFKPFEYKEHDFRMAPKFLTPLIDRVVVAGYSAALNCAVRGHPKPKVVWMKNKMEIREDPKFLITNYQGVLTLNIRRPSPFDAGTYTCRAVNELGEALAECKLEVRVPQ
B4: Synaptojanin 2A (enzyme, UniProt O15056-3 1-1288)
chain: MALSKGLRLLGRLGAEGDCSVLLEARGRDDCLLFEAGTVATLAPEEKEVIKGQYGKLTDAYGCLGELRLKSGGTSLSFLVLVTGCTSVGRIPDAEIYKITATDFYPLQEEAKEEERLIALKKILSSGVFYFSWPNDGSRFDLTVRTQKQGDDSSEWGNSFFWNQLLHVPLRQHQVSCCDWLLKIICGVVTIRTVYASHKQAKACLVSRVSCERTGTRFHTRGVNDDGHVSNFVETEQMIYMDDGVSSFVQIRGSVPLFWEQPGLQVGSHHLRLHRGLEANAPAFDRHMVLLKEQYGQQVVVNLLGSRGGEEVLNRAFKKLLWASCHAGDTPMINFDFHQFAKGGKLEKLETLLRPQLKLHWEDFDVFTKGENVSPRFQKGTLRMNCLDCLDRTNTVQSFIALEVLHLQLKTLGLSSKPIVDRFVESFKAMWSLNGHSLSKVFTGSRALEGKAKVGKLKDGARSMSRTIQSNFFDGVKQEAIKLLLVGDVYGEEVADKGGMLLDSTALLVTPRILKAMTERQSEFTNFKRIRIAMGTWNVNGGKQFRSNVLRTAELTDWLLDSPQLSGATDSQDDSSPADIFAVGFEEMVELSAGNIVNASTTNKKMWGEQLQKAISRSHRYILLTSAQLVGVCLYIFVRPYHVPFIRDVAIDTVKTGMGGKAGNKGAVGIRFQFHSTSFCFICSHLTAGQSQVKERNEDYKEITQKLCFPMGRNVFSHDYVFWCGDFNYRIDLTYEEVFYFVKRQDWKKLLEFDQLQLQKSSGKIFKDFHEGAINFGPTYKYDVGSAAYDTSDKCRTPAWTDRVLWWRKKHPFDKTAGELNLLDSDLDVDTKVRHTWSPGALQYYGRAELQASDHRPVLAIVEVEVQEVDVGARERVFQEVSSFQGPLDATVVVNLQSPTLEEKNEFPEDLRTELMQTLGSYGTIVLVRINQGQMLVTFADSHSALSVLDVDGMKVKGRAVKIRPKTKDWLKGLREEIIRKRDSMAPVSPTANSCLLEENFDFTSLDYESEGDILEDDEDYLVDEFNQPGVSDSELGGDDLSDVPGPTALAPPSKSPALTKKKQHPTYKDDADLVELKRELEAVGEFRHRSPSRSLSVPNRPRPPQPPQRPPPPTGLMVKKSASDASISSGTHGQYSILQTARLLPGAPQQPPKARTGISKPYNVKQIKTTNAQEAEAAIRCLLEARGGASEEALSAVAPRDLEASSEPEPTPGAAKPETPQAPPLLPRRPPPRVPAIKKPTLRRTGKIVFCSRSQASQPCLLLQRHEFVRTVAAQRLASVDTSGSSV
B5: KIAA1602 protein (protein, UniProt Q9HCH0 1-1334)
chain: MSEAMDQPAGGPGNPRPGEGDDGSMEPGTCQELLHRLRELEAENSALAQANENQRETYERCLDEVANHVVQALLNQKDLREECIKLKKRVFDLERQNQMLSALFQQKLQLTTGSLPQIPLTPLQPPSEPPASPSLSSTEGPAAPLPLGHCAGQREVCWEQQLRPGGPGPPAAPPPALDALSPFLRKKAQILEVLRALEETDPLLLCSPATPWRPPGQGPGSPEPINGELCGPPQPEPSPWAPCLLLGPGNLGGLLHWERLLGGLGGEEDTGRPWGPSRGPPQAQGTSSGPNCAPGSSSSSSSDEAGDPNEAPSPDTLLGALARRQLNLGQLLEDTESYLQAFLAGAAGPLNGDHPGPGQSSSPDQAPPQLSKSKGLPKSAWGGGTPEAHRPGFGATSEGQGPLPFLSMFMGAGDAPLGSRPGHPHSSSQVKSKLQIGPPSPGEAQGPLLPSPARGLKFLKLPPTSEKSPSPGGPQLSPQLPRNSRIPCRNSGSDGSPSPLLARRGLGGGELSPEGAQGLPTSPSPCYTTPDSTQLRPPQSALSTTLSPGPVVSPCYENILDLSRSTFRGPSPEPPPSPLQVPTYPQLTLEVPQAPEVLRSPGVPPSPCLPESYPYGSPQEKSLDKAGSESPHPGRRTPGNSSKKPSQGSGRRPGDPGSTPLRDRLAALGKLKTGPEGALGSEKNGVPARPGTEKTRGPGKSGESAGDMVPSIHRPLEQLEAKGGIRGAVALGTNSLKQQEPGLMGDPGARVYSSHSMGARVDLEPVSPRSCLTKVELAKSRLAGALCPQVPRTPAKVPTSAPSLGKPNKSPHSSPTKLPSKSPTKVVPRPGAPLVTKESPKPDKGKGPPWADCGSTTAQSTPLVPGPTDPSQGPEGLAPHSAIEEKVMKGIEENVLRLQGQERAPGAEVKHRNTSSIASWFGLKKSKLPALNRRTEATKNKEGAGGGSPLRREVKMEARKLEAESLNISKLMAKAEDLRRALEEEKAYLSSRARPRPGGPAPGPNTGLGQVQGQLAGMYQGADTFMQQLLNRVDGKELPSKSWREPKPEYGDFQPVSSDPKSPWPACGPRNGLVGPLQGCGKPPGKPSSEPGRREEMPSEDSLAEPVPTSHFTACGSLTRTLDSGIGTFPPPDHGSSGTPSKNLPKTKPPRLDPPPGVPPARPPPLTKVPRRAHTLEREVPGIEELLVSGRHPSMPAFPALLPAAPGHRGHETCPDDPCEDPGPTPPVQLAKNWTFPNTRAAGSSSDPLMCPPRQLEGLPRTPMALPVDRKRSQEPSRPSPTPQGPPFGGSRTPSTSDMAEEGRVASGGPPGLETSESLSDSLYDSLSSCGSQG
B6: LRR5 (fibromodulin) (MudPIT-identified) (protein, UniProt Q06828 19-376)
chain: QYEDDPHWWFHYLRSQQSTYYDPYDPYPYETYEPYPYGVDEGPAYTYGSPSPPDPRDCPQECDCPPNFPTAMYCDNRNLKYLPFVPSRMKYVYFQNNQITSIQEGVFDNATGLLWIALHGNQITSDKVGRKVFSKLRHLERLYLDHNNLTRMPGPLPRSLRELHLDHNQISRVPNNALEGLENLTALYLQHNEIQEVGSSMRGLRSLILLDLSYNHLRKVPDGLPSALEQLYMEHNNVYTVPDSYFRGAPKLLYVRLSHNSLTNNGLASNTFNSSSLLELDLSYNQLQKIPPVNTNLENLYLQGNRINEFSISSFCTVVDVVNFSKLQVLRLDGNEIKRSAMPADAPLCLRLASLIEI

Target: 3XFLAG-TEV-CBP-Cul3 (human) (UniProt Q13618)
Test: affinity purification with mass spectrometry; tandem affinity purification of 3XFLAG-TEV-CBP-Cul3 from lysate of transfected HEK293 cells (RIPA buffer): anti-FLAG M2 beads, TEV cleavage, calmodulin beads, elution with EGTA; MudPIT LC/MS-MS; proteins also found with 3XFLAG-TEV-CBP-actin removed

| binding | Binder |
| --- | --- |
| binds | B1 |
| binds | B2 |
| binds | B3 |
| binds | B4 |
| binds | B5 |
| binds | B6 |
